# Measured values published in PubChem BioAssay AID1487 (National Center for Advancing Translational Sciences (NCATS), 2009).
# Values joined by “and” are separate entries in the source; they are usually repeats but may differ in a detail not shown here. Equal values may be shown once. The list shows a part of the results. Further columns of the screen follow, without active or inactive calls. The list favours compounds with an active or inconclusive main result. Potencies come from curve fits of mixed quality, noted in brackets.
# Assay: qHTS Assay for Modulators of Lamin A Splicing
# Conditions: HeLa LMNA splicing GFP/RFP minigene ratio, 48 h
# Procedure, shortened: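 S3 HeLa cells stably expressing lamin A-EGFP splicing minigene plus DsRed2, 600 cells/well, 48 h compound exposure at 37C. Laser-scanning cytometry; analysed as GFP (500-530 nm)/RFP (575-640 nm) total intensity ratio; 0.5% DMSO vehicle.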
# [1] = measured here: RFP viability control channel
# [2] = measured here: GFP splicing reporter channel
Structure (SMILES),AC50 [1],AC50 [2]
Cc1nn(-c2ccccc2)c(C)c1/C=N/Nc1nc2ccccc2[nH]1,"14.1 µM [rising, partial curve]",–
COCCCNC(=S)Nc1ccc(C)cc1[N+](=O)[O-],"0.0141 µM [rising, full curve, poor fit]","1.12 µM [rising, full curve, poor fit]"
Cc1ccc(Cc2nc3ccccc3nc2SCC(=O)Nc2cccc(C(F)(F)F)c2)cc1,"35.5 µM [falling, single point]","35.5 µM [falling, single point]"
CC(C)CN1C(=O)c2ccc(C(=O)Nc3ccncc3)cc2C1=O,"15.8 µM [rising, partial curve]","14.1 µM [rising, partial curve, poor fit]"
COc1ccc(Cl)cc1Nc1nc(-c2sc(NC(=O)c3ccccc3)nc2C)cs1,"3.16 µM [falling, full curve]",–
COc1ccccc1C(=O)N1CCN(c2nc3cc(C)c(C)cc3cc2C#N)CC1,"20 µM [rising, single point]","14.1 µM [rising, single point]"
COc1ccccc1N1CCN(/N=C/c2cccc(OC)c2OC)CC1,–,"0.0316 µM [falling, full curve, poor fit]"
Cc1cccc(Nc2nc(N)c([N+](=O)[O-])c(N3CC(C)CC(C)C3)n2)c1 (stereo not drawn),–,"35.5 µM [falling, single point]"
O=C(Nc1ccc(N2CCCCC2)c(Cl)c1)c1ncn[nH]1,"1.41 µM [falling, partial curve]",–
CCOc1ccc(S(=O)(=O)N(CC(=O)N/N=C/c2cccs2)c2ccc(C)cc2)cc1,"0.282 µM [rising, full curve, poor fit]",–
CC(C)C(c1nnnn1Cc1ccc(F)cc1)N1CCN(C2CCCCC2)CC1 (stereo not drawn),"0.0355 µM [falling, full curve, poor fit]",–
CN1CCN(Cc2c(C#N)c3ccccc3n2C)CC1,"0.126 µM [rising, full curve, poor fit]","5.01 µM [rising, partial curve]"
CC(C)(C)c1ccc(S(=O)(=O)NCc2nc3cccnc3n2Cc2ccccc2Cl)cc1,–,"2.82 µM [falling, partial curve, poor fit]"
COc1ccccc1Nc1ccc(S(=O)(=O)N2CCCCC2)cc1[N+](=O)[O-],"12.6 µM [rising, partial curve]",–
O=C(CC1NCCc2ccccc21)Nc1ccccc1Cl (stereo not drawn),–,"35.5 µM [falling, single point]"
O=C(N/N=C/c1c[nH]c2ccc(Br)cc12)c1ccn(Cc2ccc(Cl)cc2)n1,"15.8 µM [falling, single point]","12.6 µM [falling, single point]"
COC(=O)C1=CO[C@@H](C)[C@H]2CN3CCc4c([nH]c5ccccc45)[C@@H]3C[C@H]12,"7.08 nM [rising, full curve, poor fit] and 70.8 nM [falling, full curve, poor fit]","3.16 µM [falling, single point] and 50.1 nM [falling, full curve]"
CCOc1ccc(CNC(=O)Cn2nc(C)c3nn(-c4ccc(Cl)cc4)c(C)c3c2=O)cc1OC,"0.0224 µM [falling, full curve, poor fit]",–
c1ccc2c(CC3=NCCN3)cccc2c1,"2 µM [falling, single point]","1.41 µM [falling, single point]"
N=c1c2c(-c3ccccc3)c(-c3ccccc3)n(Cc3ccco3)c2ncn1Cc1ccccc1,"20 µM [falling, partial curve]","17.8 µM [falling, partial curve]"
CC(=O)OCC(=O)[C@@]12OC(C)(C)O[C@@H]1C[C@H]1[C@@H]3C[C@H](F)C4=CC(=O)C=C[C@]4(C)[C@@]3(F)[C@@H](O)C[C@@]12C,–,"0.631 µM [rising, full curve, poor fit]"
CCN(CC)S(=O)(=O)c1cccc(C(=O)N/N=C(\C)c2ccc(O)cc2O)c1,"11.2 µM [rising, single point]",–
CN1C/C(=C/c2cccnc2)C(=O)/C(=C/c2cccnc2)C1,"35.5 µM [rising, single point]",–
CCC(=O)N1CCN(c2cc(N3CCN(C)CC3)c(F)cc2[N+](=O)[O-])CC1,"11.2 µM [rising, partial curve]",–
C[C@@H](NCCc1ccc(O)cc1)[C@@H](O)c1ccc(O)cc1,–,"0.01 µM [rising, full curve, poor fit]"
COc1cc(NC(=O)c2cccc3c2C(=O)N(Cc2cccnc2)C3)cc(OC)c1OC,"7.94 µM [rising, partial curve, poor fit]",–

Structure (SMILES),AC50 [1],AC50 [2]
CCCC[C@H](CC)CN=C(N)NC(N)=NCCCCCCN=C(N)NC(N)=NC[C@@H](CC)CCCC,"10 µM [falling, partial curve]","8.91 µM [falling, partial curve]"
Cc1cccc(C(=O)N2CCC(Cc3ccccc3)CC2)c1[N+](=O)[O-],"22.4 µM [rising, partial curve]",–
Cn1c(N)c(C(=O)COC(=O)c2cccnc2Cl)c(=O)n(C)c1=O,–,"0.158 µM [rising, full curve, poor fit]"
CC(=O)C(=Nc1ccc(Cl)cc1Cl)NNc1cccc(Cl)c1,–,"14.1 µM [rising, partial curve, poor fit]"
O=C(N/N=C/c1ccc2c(c1)OCO2)c1ccc2c(c1)OCCO2,"17.8 µM [rising, single point]","17.8 µM [rising, single point]"
O=C(Nc1nc(N2C(=O)c3ccccc3C2=O)n(-c2ccccc2)n1)c1ccc(F)cc1,"10 µM [falling, partial curve]",–
COc1ccc(S(=O)(=O)N2CCC(C(=O)c3ccc4c(c3)OCCO4)CC2)cc1,"10 µM [rising, partial curve, poor fit]",–
O=C(COc1ccccc1F)Nc1ccccc1OCc1cc(=O)n2ccccc2n1,–,"7.94 µM [falling, partial curve, poor fit]"
Cc1ccc(C(=O)N/C(=C/c2cccnc2)C(=O)O)cc1,"31.6 µM [falling, partial curve, poor fit]","0.00355 µM [falling, full curve, poor fit]"
O=C(CCNC(=O)c1ccccc1Cl)Nc1ccc(Br)c(C(F)(F)F)c1,"22.4 µM [rising, single point]","28.2 µM [rising, single point]"
COc1ccc(-n2c(-c3ccc(Cl)cc3)c[n+]3c2CCc2ccccc2-3)cc1,"28.2 µM [rising, single point]",–
Nc1ncnc2nc(Sc3ccc(Cl)cc3)[nH]c12,"35.5 µM [rising, single point]",–
COc1ccc(-n2c(=O)c(-c3cccs3)nc3cnc(Nc4ccccc4)nc32)cc1,"12.6 µM [falling, partial curve]","20 µM [falling, partial curve]"
O=C(/C=C/c1ccc(N2CCCCC2)c([N+](=O)[O-])c1)c1ccc(O)cc1,"10 µM [falling, partial curve]","12.6 µM [falling, partial curve]"
Cc1cc(C2=NNC(=NC3CC3)SC2)c(C)n1Cc1ccco1,"4.47 µM [falling, single point]","2.51 µM [falling, partial curve]"
Ic1ccc(N2CCN(Cc3c[nH]c4ncccc34)CC2)cc1,"0.00447 µM [falling, full curve, poor fit]","0.00501 µM [falling, full curve, poor fit]"
CCc1cccc(CC)c1NC(=O)COC(=O)/C(C#N)=C/c1ccc(OC)cc1,–,"25.1 µM [rising, single point]"
Cc1ccc(C(=O)c2c(C)oc3c2C(=O)C(=O)c2ccccc2-3)cc1,"20 µM [falling, partial curve]","15.8 µM [falling, single point]"
Cc1cccc(-n2cc(-c3ccccc3)c3c(NC(C)C)ncnc32)c1,"35.5 µM [falling, single point]","35.5 µM [falling, single point]"
O=C1CN(c2nc(-c3cccs3)nc3sc4c(c23)CCCC4)CCN1,"0.708 µM [rising, partial curve, poor fit]","6.31 µM [rising, partial curve]"
CCOC(=O)N1CCN(C(=O)CCc2ccc(S(=O)(=O)NCCc3ccccc3)cc2)CC1,"31.6 µM [rising, single point]","14.1 µM [rising, single point]"
COc1ccc(C(OC(=O)c2ccco2)C(=O)NC2CCCCC2)cc1OC (stereo not drawn),"31.6 µM [rising, single point]",–
Cc1ccsc1/C=N/NC(=O)CC(=O)NCC(C)C,"0.0316 µM [falling, full curve, poor fit]",–
COc1ccc(/C=N\NS(=O)(=O)c2ccc(C)cc2)cc1COc1ccccc1[N+](=O)[O-],"35.5 µM [rising, single point]","17.8 µM [rising, single point]"
CC1=NN(c2ccc(Cl)cc2)C(=O)C1C(c1cccc(O)c1)c1c(C)[nH]n(-c2ccc(Cl)cc2)c1=O (stereo not drawn),"17.8 µM [rising, single point]",–
